Results: PubChem BioAssay AID1347426 (Functional Genomics Laboratory (NCATS/FGL), 2020)
Out of some 31,000 sequences screened, about 1,400 (4.5%) were called active.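 The calls were made as follows: active = median seed-adjusted z-score above 1 or below -1; inactive = the rest.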 Some of the results follow.

Test: Novel Modifiers of Survival Motor Neuron (SMN) Protein: Gene Identification via Genome-wide siRNA Screen;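 also: luminescence tracks full-length SMN protein made from the SMN2 reporter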
Conditions: HEK293T SMN2-luciferase reporter, siRNA knockdown, 72 h; actives lie on both sides
Summary of the method: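 Each of three siRNAs per gene is reverse-transfected (1 pmol) into reporter HEK293T cells whose luciferase output tracks SMN protein level. After 72 h culture, ONE-Glo luminescence is control-normalized, log10-transformed and MAD-standardized; Common Seed Analysis deprioritizes seed-driven hits.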
In the case of GCAUGAACUGAAACCCAAUTT against SMURF1, the median seed-adjusted z-score is reported as active: -1.4. With CAACUGAUGAGUAUCUAGATT against MRCL3 the median seed-adjusted z-score was inactive: -0.00909. With CCUUCACCCUUGUCCAAAATT against GPX2 the median seed-adjusted z-score was inactive: -0.21. In the case of GAUUGUCGAGUGGACCAAATT against TRPM2, the median seed-adjusted z-score is reported as inactive: 0.226. For UCUGGCUUAUUAUAACUAUTT against ACOT2, the median seed-adjusted z-score was inactive: 0.578. With GCAAAUGGGUAUCCACAGATT against COL16A1 the median seed-adjusted z-score was inactive: -0.0496. With CGCUCUACCUGAUCUGCUATT against SLC43A2 the median seed-adjusted z-score was inactive: -0.202. With CCAGUUCGCUAUCACCAAATT against MATN1 the median seed-adjusted z-score was inactive: -0.271. With CCUCAUGUCGGGCAUCUUATT against EGR4 the median seed-adjusted z-score was inactive: 0. In the case of GGACCAUCCUCUCACUACUTT against NINJ2, the median seed-adjusted z-score is reported as inactive: 0.133. For CUCCCGGACUUGUUCAACATT against TTLL4, the median seed-adjusted z-score was inactive: -0.256. For GGAUCACUCUAACAUCGGATT against PDE1C, the median seed-adjusted z-score was inactive: 0.157. For GAACUGAUCAUUAACGAGATT against PAK2, the median seed-adjusted z-score was inactive: 0.122. With GAAGUGUGGUUAAAGAGCATT against TPCN2 the median seed-adjusted z-score was inactive: -0.341. With GCCUUUCAUGAGUAUCUAUTT against GPR82 the median seed-adjusted z-score was inactive: -0.83. For GGAAACUGUCAUUUUUAUUTT against BTN2A2, the median seed-adjusted z-score was inactive: -0.0599. With GGACAUCUUUAAAGUACGATT against CR1 the median seed-adjusted z-score was inactive: 0.143. With GAAUACUUUUUCUCCCGAATT against PSMA5 the median seed-adjusted z-score was inactive: -0.824. In the case of CCCAAUAACUUAAAGACCUTT against ICK, the median seed-adjusted z-score is reported as inactive: 0.638. With GACAAACUCGUAACGAUGATT against FLG the median seed-adjusted z-score was inactive: 0.221. For GGAGAGUCAUAAGCAACACTT against OLFM1, the median seed-adjusted z-score was inactive: -0.103. In the case of GGCUCGAGAUUUAUACGAUTT against HECTD1, the median seed-adjusted z-score is reported as inactive: -0.0588. In the case of GAAUAGGUCUUAUACAACATT against RNF11, the median seed-adjusted z-score is reported as inactive: -0.365. With GUGGAAGGCUUACAACCCATT against ALOX15B the median seed-adjusted z-score was inactive: 0.156. With CUACGACAAUUACCGGCGATT against RASGRP1 the median seed-adjusted z-score was inactive: -0.392. For CUGCUUGACUGGUUUGAGATT against PIM2, the median seed-adjusted z-score was inactive: 0.00597. With UGUGAUUGCCCUGCACAAATT against CXCR5 the median seed-adjusted z-score was inactive: 0.0406. For UGGAGAAGGCGGUUCCGUUTT against IRX4, the median seed-adjusted z-score was inactive: 0.0613. For GCUAAUUACAGCUUACAGATT against DPP6, the median seed-adjusted z-score was inactive: 0.0505. For GGUCAUAGAUAGCAUCAUATT against HAL, the median seed-adjusted z-score was inactive: 0. With GUAUGGUAGCGAUAAGUUUTT against ST3GAL6 the median seed-adjusted z-score was inactive: -0.548. In the case of GGGAAAGAGGUGAUCAACATT against RNASEH1, the median seed-adjusted z-score is reported as inactive: -0.0205. With CGACGUAAAGUUCAACAGATT against PROX1 the median seed-adjusted z-score was inactive: -0.372. For CCCUAGAGGAUGUAAAGCATT against DHX29, the median seed-adjusted z-score was inactive: -0.28. In the case of CAACCAAUGAAUUUCCGAATT against PCSK5, the median seed-adjusted z-score is reported as inactive: -0.158. For GAAACCCGGUGAAAAGAAATT against VARS2, the median seed-adjusted z-score was inactive: 0.288. With GGCCUAUCCUGAUUCUGAUTT against RND2 the median seed-adjusted z-score was inactive: -0.0613. In the case of CUGUAGCAACAAUAUCGUATT against SLIT2, the median seed-adjusted z-score is reported as inactive: -0.592. For CGUGGGAUAUGUUGACGGATT against BTNL3, the median seed-adjusted z-score was inactive: 0. For CCACCAUACCUGUCACAGATT against PITRM1, the median seed-adjusted z-score was inactive: -0.0959. In the case of “GACUUUCUCCGAUACAUGATT against ST6GALNAC1”, the median seed-adjusted z-score is reported as inactive: -0.854. With CCGUGGUUCUGUACAAUGUTT against SLC9A3 the median seed-adjusted z-score was inactive: 0.422. For GGGCUACGUGUUCAACUCATT against ALPI, the median seed-adjusted z-score was inactive: 0. In the case of GCACAAGCGUGUAAAAGAATT against SIRT4, the median seed-adjusted z-score is reported as inactive: 0.623. In the case of GAAUGACUACAAGUGGUUUTT against CTSC, the median seed-adjusted z-score is reported as inactive: 0. In the case of GCAAUGAACUCAACAGCUATT against ANGPTL7, the median seed-adjusted z-score is reported as inactive: 0. For GCUGGUACAUGACAUCCGATT against GGT7, the median seed-adjusted z-score was inactive: 0.135. For GGACCUACACUUUUCUCUUTT against FAM53B, the median seed-adjusted z-score was inactive: -0.00535. With CCGCCGUUUUAAAAUCCCATT against DPP9 the median seed-adjusted z-score was inactive: -0.224. With AACUCUUCAGGUGAAGAUATT against SLC8A2 the median seed-adjusted z-score was inactive: 0. With CAAUAUGGAAAGAGAUAUATT against PLCG2 the median seed-adjusted z-score was inactive: 0. With GCUUGCCCACUACAAUUUUTT against TARS2 the median seed-adjusted z-score was inactive: -0.0143. With AACGCACUCUUCUACGUCATT against NTSR1 the median seed-adjusted z-score was active: -1.1. With GAGUUGUCUUUCAAUCGGATT against MYO5C the median seed-adjusted z-score was inactive: 0. For CGAGCAUUCUCUCUUGAAATT against MED24, the median seed-adjusted z-score was active: -2.3. For CCACUAGUGAAACAACCAATT against PCLO, the median seed-adjusted z-score was inactive: -0.734. In the case of CACCCGUCCAUGUACUUCATT against L3MBTL, the median seed-adjusted z-score is reported as inactive: 0.0232. With CGAGCUGAGUGAUUGGUCATT against FXR1 the median seed-adjusted z-score was inactive: 0.131. In the case of AGUUCACCCUCGUACUCUATT against FURIN, the median seed-adjusted z-score is reported as inactive: 0.0975. With CCAGGGUCAUCGAUCAGAATT against EPPK1 the median seed-adjusted z-score was inactive: 0.786. In the case of GGGUUCCAAUAGAAACUUUTT against ACTL8, the median seed-adjusted z-score is reported as inactive: 0. With UGAUAAGUAUGCUUCAGAATT against RAB12 the median seed-adjusted z-score was inactive: -0.185. For GAAUACUCAUUGAUAAGCUTT against RASSF9, the median seed-adjusted z-score was inactive: 0.314. With GGUUUCUACAGUCUGCAAATT against MID2 the median seed-adjusted z-score was inactive: -0.0363. With GUAUGUUCAGGAUAAUGGATT against CTSL1 the median seed-adjusted z-score was inactive: 0.378. With CAAAAGACAUACGAAGUUATT against GUF1 the median seed-adjusted z-score was inactive: 0.119. For CGACUCUAAUGAUGAGCGATT against DNAJC16, the median seed-adjusted z-score was inactive: 0. For CAAUUAAGCUUUCGAGUAUTT against CYP7B1, the median seed-adjusted z-score was inactive: 0.598. With CCCAAUCAAUGAACGGAGATT against SMC5 the median seed-adjusted z-score was inactive: 0.0666. In the case of UGAUCGAGAUGGUACAAGATT against APTX, the median seed-adjusted z-score is reported as inactive: -0.131. For UGCACGAUCUUCUACCCAATT against TKTL1, the median seed-adjusted z-score was inactive: -0.495. In the case of GAAAGUUCAUCUACUUAGATT against TNFRSF10A, the median seed-adjusted z-score is reported as inactive: 0.129. With CUGGAUCACUGUAACAGUATT against RNF138 the median seed-adjusted z-score was inactive: 0.265. For CUAGAGCUACCAUCCCGAATT against EIF4G3, the median seed-adjusted z-score was inactive: -0.0562. With CUGUAGAAAUGUAUCCUGATT against SOD1 the median seed-adjusted z-score was inactive: -0.8. In the case of GCUUUGCUUUUCUAACAGATT against SDR42E1, the median seed-adjusted z-score is reported as inactive: -0.109. With GUAACUUCCGUGACCCUAATT against TDRD6 the median seed-adjusted z-score was inactive: 0. For AGGCCGAGAUUAUUGCCGATT against HNRNPA0, the median seed-adjusted z-score was inactive: 0.149. In the case of AGAGUUUCGCUGUCCUGUATT against C8G, the median seed-adjusted z-score is reported as inactive: -0.622. In the case of CAAAUACAGUGAGGACAUUTT against GPR83, the median seed-adjusted z-score is reported as inactive: 0.105. For CCAGAGACAGUGACACGGATT against PTPRCAP, the median seed-adjusted z-score was inactive: 0.372. For CAUCAAUUUGAGUUGUUCATT against PGRMC2, the median seed-adjusted z-score was inactive: -0.223. For AGCAGCAGCCUAAACUAUATT against WFDC10A, the median seed-adjusted z-score was inactive: -0.439. With CACUGAUGCUCGGUCCAAATT against HMCN1 the median seed-adjusted z-score was inactive: 0.00218. With GGCUUAAAGCAAGCGGAUATT against CPS1 the median seed-adjusted z-score was inactive: -0.247. In the case of CAGACUAAACUAUAGCGAUTT against SENP6, the median seed-adjusted z-score is reported as active: -1.03. In the case of GACUUACCAUUAUUCUGAATT against SELL, the median seed-adjusted z-score is reported as inactive: 0.554. With GGAUCAAGAUUAUUAACCATT against FOXM1 the median seed-adjusted z-score was inactive: -0.399. In the case of GCAUGAUUGAUGAUAUGAUTT against MOV10L1, the median seed-adjusted z-score is reported as inactive: -0.0497. With GACUCGAGAUCAACAGCAATT against SUFU the median seed-adjusted z-score was inactive: -0.263. For GCUCAUCGUGGGUCUCCUATT against POR, the median seed-adjusted z-score was inactive: 0.189. For GGAAGAGUCUGAUCCGACATT against GDPD3, the median seed-adjusted z-score was inactive: -0.0754. For UCGUGGCGCUGUGCAAGAATT against HIC1, the median seed-adjusted z-score was inactive: 0.523. With GCUGUAAACAGGUGGAAAATT against RARRES3 the median seed-adjusted z-score was inactive: -0.033. For CCUCGAUCCUGAGAUUGUATT against CDK5, the median seed-adjusted z-score was inactive: 0.402. In the case of GAUGCUACUUUAGAAUUAATT against GNPDA2, the median seed-adjusted z-score is reported as inactive: -0.422. For GGACCGGUACGAAUUCUCUTT against IKZF4, the median seed-adjusted z-score was inactive: -0.426. In the case of CAAACAAGGAUGUUCGAAATT against EIF3E, the median seed-adjusted z-score is reported as inactive: 0.549. For GCCUGUUGCUCAUGACUUUTT against KCNJ4, the median seed-adjusted z-score was inactive: -0.492. In the case of CAUCAUUACCAGAGCUACATT against RLN1, the median seed-adjusted z-score is reported as inactive: 0.0637. With GGACUACAUGAAUGGAACATT against NMNAT1 the median seed-adjusted z-score was inactive: 0.22. For CCCAUAUGAUUACCCAUUUTT against MYH2, the median seed-adjusted z-score was inactive: -0.73. In the case of GGAUUAAAGUGUGAAGACUTT against PRKCD, the median seed-adjusted z-score is reported as inactive: -0.236. For GGAUUAAAGUAUCCUGGAATT against PON1, the median seed-adjusted z-score was inactive: 0. With GGACAUCUUUAGUACCAGATT against AGFG2 the median seed-adjusted z-score was inactive: -0.289. For AUAUCAUUCCAGUCUCAUATT against ZNF154, the median seed-adjusted z-score was inactive: 0. In the case of GACCCUAAGCAGUAUAAGATT against CHSY3, the median seed-adjusted z-score is reported as inactive: -0.113. In the case of CAGGCGCCUGAAGUACAUATT against SLC35A2, the median seed-adjusted z-score is reported as active: 1.06.
